The list does not hold the whole screen: it is rich in T/C values a quarter to a half above the control, in often repeated tests (any T/C) and in doses without a T/C. Further doses and runs are listed elsewhere. T/C: endpoint of the treated group in % of that of the vehicle group. Schedules are NCI's codes, read here as Q, the interval in days (D) or hours (H), X, the number of doses. Some T/C values carry the count of animals alive at the toxicity check (mostly the fifth day); where none is given, no animal had died by that day. Some entries hold several experiments; the values are given in rising order. Some entries give survivors of the animals treated and no T/C: the source holds a T/C of zero for them, seemingly a mark for toxic or unscored doses. Survivors were counted at the toxicity check, usually on the fifth day, unless a day is given; later deaths do not show.
Tested on: BDF1 mice, colon carcinoma 38 sc, T/C %
Test: NCI In Vivo Anticancer Drug Screen. Data for tumor model Colon Carcinoma 38 (subcutaneous) in B6D2F1 (BDF1) mice
Details: T/C endpoint: median tumor weight (est.), higher T/C = larger tumour; for T/C: evaluated on day 20
How it was run: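 Compound antitumor activity was assessed in mice carrying transplantable tumors. Survival or tumor size was recorded, and each value is the treated-group measurement divided by that of the vehicle-treated control group.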

[1] = dose: 12.5 mg/kg/injection, schedule: Q07DX002 (ip), vehicle: saline with Tween-80
[2] = dose: 50.0 mg/kg/injection, schedule: Q07DX002 (ip), vehicle: saline with Tween-80
[3] = dose: 200.0 mg/kg/injection, schedule: Q07DX002 (ip), vehicle: suspension in saline
[4] = dose: 400.0 mg/kg/injection, schedule: Q07DX002 (ip), vehicle: saline with Tween-80
[5] = dose: 50.0 mg/kg/injection, schedule: Q07DX002 (ip), vehicle: Klucel (hydroxypropylcellulose) (HPC)
[6] = dose: 100.0 mg/kg/injection, schedule: Q07DX002 (ip), vehicle: Klucel (hydroxypropylcellulose) (HPC)
[7] = dose: 6.25 mg/kg/injection, schedule: Q07DX002 (ip), vehicle: saline with Tween-80
[8] = dose: 100.0 mg/kg/injection, schedule: Q07DX002 (ip), vehicle: saline with Tween-80
[9] = dose: 50.0 mg/kg/injection, schedule: Q07DX003 (ip), vehicle: Klucel (hydroxypropylcellulose) (HPC)

COC1=C(OC)C(=O)C(SC/C=C(\C)CCCC(C)CCCC(C)CCCC(C)C)=CC1=O (stereo unspecified)
T/C [1]: 126 % of control | T/C [2]: 141 % of control

NC(Cc1ccc(N(CCCl)CCCl)cc1)C(=O)O (stereo unspecified)
survivor count (dose: 16.0 mg/kg/injection, schedule: Q07DX002 (ip), vehicle: water): 5 of 10 on day 20 | survivor count (dose: 32.0 mg/kg/injection, schedule: Q07DX002 (ip), vehicle: Klucel (hydroxypropylcellulose) (HPC)): 0 of 10 on day 20 | survivor count (dose: 32.0 mg/kg/injection, schedule: Q07DX002 (ip), vehicle: water): 1 of 10 on day 20

Cn1cnc([N+](=O)[O-])c1Sc1ncn[nH]1
T/C [3]: 128 % of control [8 of 10 alive on day 20] | survivor count (dose: 800.0 mg/kg/injection, schedule: Q07DX002 (ip), vehicle: suspension in saline): 1 of 10 on day 20

Cc1cc2c(c3oc(C4(C)OC4C4OC4C)cc(=O)c13)C(=O)c1c(O)c(C3CC(C)(N(C)C)C(O)C(C)O3)cc(C3CC(N(C)C)C(O)C(C)O3)c1C2=O (stereo unspecified)
survivor count (dose: 1.88 mg/kg/injection, schedule: Q07DX002 (ip), vehicle: Klucel (hydroxypropylcellulose) (HPC)): 0 of 10 on day 20 | survivor count (dose: 3.75 mg/kg/injection, schedule: Q07DX002 (ip), vehicle: Klucel (hydroxypropylcellulose) (HPC)): 0 of 10 on day 20 | survivor count (dose: 7.5 mg/kg/injection, schedule: Q07DX002 (ip), vehicle: Klucel (hydroxypropylcellulose) (HPC)): 0 of 10 on day 20 | survivor count (dose: 15.0 mg/kg/injection, schedule: Q07DX002 (ip), vehicle: Klucel (hydroxypropylcellulose) (HPC)): 0 of 10 on day 20 | survivor count (dose: 30.0 mg/kg/injection, schedule: Q07DX002 (ip), vehicle: Klucel (hydroxypropylcellulose) (HPC)): 0 of 10 on day 20 | survivor count (dose: 58.8 micrograms/kg/injection, schedule: Q07DX002 (ip), vehicle: Klucel (hydroxypropylcellulose) (HPC)): 1 of 10 on day 20 | survivor count (dose: 117.5 micrograms/kg/injection, schedule: Q07DX002 (ip), vehicle: Klucel (hydroxypropylcellulose) (HPC)): 0 of 10 on day 20 | survivor count (dose: 235.0 micrograms/kg/injection, schedule: Q07DX002 (ip), vehicle: Klucel (hydroxypropylcellulose) (HPC)): 0 of 10 on day 20 | survivor count (dose: 470.0 micrograms/kg/injection, schedule: Q07DX002 (ip), vehicle: Klucel (hydroxypropylcellulose) (HPC)): 0 of 10 on day 20 | survivor count (dose: 940.0 micrograms/kg/injection, schedule: Q07DX002 (ip), vehicle: Klucel (hydroxypropylcellulose) (HPC)): 0 of 10 on day 20

C/C=C(\C)c1cc(=O)c2c(C)cc3c(c2o1)C(=O)c1c(O)c(C2CC(C)(N(C)C)C(O)C(C)O2)cc(C2CC(N(C)C)C(O)C(C)O2)c1C3=O (stereo unspecified)
survivor count (dose: 2.5 mg/kg/injection, schedule: Q07DX002 (ip), vehicle: saline): 2 of 10 on day 20 | survivor count (dose: 5.0 mg/kg/injection, schedule: Q07DX002 (ip), vehicle: saline): 6 of 10 on day 20 | survivor count (dose: 2000.0 micrograms/kg/injection, schedule: Q07DX002 (ip), vehicle: saline): 4 of 10 on day 20

C/C=C1\C[C@@H]2C(OC)Nc3cc(O)c(OC)cc3C(=O)N2C1 (stereo partly specified)
T/C (dose: 0.06 mg/kg/injection, schedule: Q07DX002 (ip), vehicle: suspension in saline): 129 % of control | survivor count (dose: 2.0 mg/kg/injection, schedule: Q07DX002 (ip), vehicle: saline): 1 of 10 on day 20 | survivor count (dose: 2.0 mg/kg/injection, schedule: Q07DX002 (ip), vehicle: suspension in saline): 0 of 10 on day 20

NC(=S)N/N=C/c1ccc(O)cn1
T/C [3]: 125 % of control

CN=S(=O)(OCCCCCOS(=O)(=NC)c1ccc(C)cc1)c1ccc(C)cc1 (stereo unspecified)
survivor count (dose: 200.0 mg/kg/injection, schedule: Q07DX002 (ip), vehicle: saline with Tween-80): 3 of 10 on day 20 | survivor count [4]: 0 of 10 on day 20

Nc1nc(N)c2cc(CNc3ccc(C(=O)NC(CC(=O)O)CC(=O)O)cc3)ccc2n1
T/C (dose: 25.0 mg/kg/injection, schedule: Q07DX002 (ip), vehicle: Klucel (hydroxypropylcellulose) (HPC)): 144 % of control | T/C [5]: 127 % of control | T/C [6]: 146 % of control

Cc1cc(N(CC(C)Br)CC(C)Br)ccc1N=Nc1ccccc1C(=O)O (stereo unspecified)
T/C [7]: 137 % of control

COC1=C(C)C(=O)C2=C(C1=O)C(CO)N1C(C#N)C3CC4C(C1C2N1CCOC41)N3C (stereo unspecified)
T/C (dose: 1.0 mg/kg/injection, schedule: Q07DX002 (ip), vehicle: saline + alcohol): 138 % of control

COc1ccc(OC)c(Cc2cnc3nc(N)nc(N)c3c2C)c1
survivor count (dose: 200.0 mg/kg/injection, schedule: Q07DX002 (ip), vehicle: water): 2 of 10 on day 20 | survivor count (dose: 400.0 mg/kg/injection, schedule: Q07DX002 (ip), vehicle: water): 2 of 10 on day 20

O=c1n(CC2CO2)c(=O)n(CC2CO2)n1CC1CO1 (stereo unspecified)
survivor count (dose: 100.0 mg/kg/injection, schedule: Q07DX002 (ip), vehicle: saline): 0 of 10 on day 20 | survivor count (dose: 200.0 mg/kg/injection, schedule: Q07DX002 (ip), vehicle: saline): 0 of 10 on day 20

CCc1ccc(C2=C(O)C(=O)C(c3ccc(CC)cc3)=C(O)C2=O)cc1
T/C [7]: 126 % of control | survivor count [8]: 6 of 10 on day 20

NC(=S)c1cn(C2OC(CO)C(O)C2O)c2ncnc(N)c12 (stereo unspecified)
survivor count (dose: 20.0 mg/kg/injection, schedule: Q07DX002 (ip), vehicle: suspension in saline): 1 of 10 on day 20

CCCCCCCCSC1=C(Cl)C(=O)C(OC)=C(OC)C1=O
T/C [7]: 45 [9 of 10 alive on day 20], 85, 86, 103 % of control | T/C [1]: 66, 70 [7 of 10 alive on day 20], 83, 85 % of control [7 of 10 alive on day 20] | T/C (dose: 25.0 mg/kg/injection, schedule: Q07DX002 (ip), vehicle: saline with Tween-80): 42 [7 of 10 alive on day 20], 65, 92, 108 % of control | T/C [2]: 100 % of control | survivor count [2]: 2 of 10 on day 20, 4 of 10 on day 20, 6 of 10 on day 20

CS(=O)(=O)OCCN(CCOS(C)(=O)=O)c1ccc(C=Nc2ccc(-c3csc(COc4ccccc4)n3)cc2)cc1
T/C [5]: 138 % of control

F[B-](F)(F)F
T/C (dose: 100.0 mg/kg/injection, schedule: Q07DX002 (ip), vehicle: gum acacia): 128 % of control

NC(CCl)=NCC12CC3CC(CC(C3)C1)C2
T/C (dose: 12.5 mg/kg/injection, schedule: Q07DX003 (ip), vehicle: Klucel (hydroxypropylcellulose) (HPC)): 132 % of control | T/C [9]: 141 % of control

O=c1s[se]c2ccccc12
T/C [7]: 125 % of control | survivor count [8]: 3 of 10 on day 20

O=C(Nc1ccc(N=C=S)cc1Cl)c1cc(Cl)cc(Cl)c1O
survivor count [6]: 5 of 10 on day 20 | survivor count (dose: 200.0 mg/kg/injection, schedule: Q07DX002 (ip), vehicle: Klucel (hydroxypropylcellulose) (HPC)): 0 of 10 on day 20 and 1 of 10 on day 20 | survivor count (dose: 400.0 mg/kg/injection, schedule: Q07DX002 (ip), vehicle: Klucel (hydroxypropylcellulose) (HPC)): 0 of 10 on day 20

CN(CO)c1nc(N(C)CO)nc(N(C)CO)n1
T/C (dose: 6.25 mg/kg/injection, schedule: Q07DX003 (ip), vehicle: saline): 132 % of control | survivor count [4]: 1 of 10 on day 20

O=C(CCCN1CCC(O)(c2cccc(C(F)(F)F)c2)CC1)c1ccc(F)cc1
T/C [9]: 127 % of control

Nc1n[n+](-c2ccccc2)no1
survivor count (dose: 100.0 mg/kg/injection, schedule: Q07DX002 (ip), vehicle: water): 0 of 10 on day 20
